In patent publication US20090232801A1:
These are yes or no findings as the source states them, for the method shown. Some entries that bind do so weakly or less than the wild type.

Columns and labels:
[1] = molecular target: Aβ(1-42) globulomer (human); test: dot blot immunoassay
[2] = molecular target: Aβ(1-42) globulomer (human); test: competition ELISA (FIG. 3)
[3] = molecular target: Aβ(1-42) globulomer (human); test: competition ELISA on plate-coated A-Beta antigen (1-42); competitor: biotinylated mouse 8F5 antibody (tracer, per legend paragraph 41); Neutra Avidin HRP/TMB, O.D. 450 nm

Measured: binding

B1: humanized monoclonal antibody 8F5hum8 (antibody, V domains shown)
VH: EVQLVESGGGLVQPGGSLRLSCAASGFTFSSYGMSWVRQAPGKGLELVASINSNGGSTYYPDSVKGRFTISRDNAKNTLYLQMNSLRAEDTAVYYCASGDYWGQGTLVTVSS
VL: DIVMTQSPLSLPVTPGEPASISCRSSQSLVYSNGDTYLHWYLQKPGQSPKLLIYKVSNRFSGVPDRFSGSGSGTDFTLKISRVEAEDVGVYYCSQSTHVPWTFGGGTKVEIKR
binds: all assays above
